Laboratory results taken from patent US9260397B2, “Salts comprising aryl-alkyl-substituted imidazolium and triazolium cations and the use thereof” (TECHNISCHE UNIVERSITAET DRESDEN, priority 2008, dated 2016).

Assay: Hydrogen storage in the ionic liquid and release at reduced pressure
Description: Hydrogen is passed for 10 minutes through 5 g of the above mentioned ionic liquid 3-mesityl-1-octyl-imidazolium tetrafluoroborate (Example 95). Then the stored hydrogen is released at reduced pressure.
0.511 g of hydrogen is released. This corresponds to a hydrogen storage capacity of the ionic liquid 3-mesityl-1-octyl-imidazolium tetrafluoroborate of 10.22 weight percent.

CCCCCCCCn1cc[n+](-c2c(C)cc(C)cc2C)c1.F[B-](F)(F)F [3-mesityl-1-octyl-imidazolium tetrafluoroborate]
hydrogen storage capacity (0.511 g hydrogen released from 5 g ionic liquid): 10.22 weight percent | hydrogen released (hydrogen passed for 10 minutes through 5 g of the ionic liquid, released at reduced pressure): 0.511 g
